Earlier results as cited in US4826984A, “Heteroarotinoid compounds as anticancer agents” (The Board of Regents for the Oklahoma Agricultural and …, priority 1987, dated 1989).
At least one compound was matched to its structure with a doubt left.

Tested on: HL-60 cells
Settings: previously reported; read-out: ED50 (the source's name); cited from earlier work

## C/C(=C\c1ccc(C(=O)O)cc1)c1ccc2c(c1)C(C)(C)CCC2(C)C [TTNPB, tetrahydrotetramethylnaphthalenylpropenylbenzoic acid]
  EC50: ~200 nM
